This experiment deals with T1, DJ-1 (Park7) (mouse (endogenous in mouse brain)) (UniProt Q99LX0).
T1 sequence: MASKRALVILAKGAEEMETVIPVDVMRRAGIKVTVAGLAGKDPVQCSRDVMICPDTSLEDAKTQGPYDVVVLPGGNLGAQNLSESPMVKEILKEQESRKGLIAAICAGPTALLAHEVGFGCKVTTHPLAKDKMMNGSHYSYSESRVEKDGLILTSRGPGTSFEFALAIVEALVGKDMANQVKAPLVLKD
The experiment in a line: co-IP; 500 ug mitochondrial lysate of mouse brain (WT, CHCHD2 T61I and CHCHD2 KO mice) in 1 ml RIPA buffer (150 mM NaCl, 50 mM tris-HCl pH 7.5, 0.1% SDS, 1% Na deoxycholate, 1% NP-40, 1 mM EDTA) with 3 ul antibody, 4°C; uMACS Protein A or G microbeads; eluates analysed by immunoblotting. In general terms: Immunoblotting shows a protein as a band on a membrane.

Sequences of proteins named here, by UniProt entry; tags and fusion partners are left off. Residues count along the entry.
UniProt Q8R493, residues 21-495: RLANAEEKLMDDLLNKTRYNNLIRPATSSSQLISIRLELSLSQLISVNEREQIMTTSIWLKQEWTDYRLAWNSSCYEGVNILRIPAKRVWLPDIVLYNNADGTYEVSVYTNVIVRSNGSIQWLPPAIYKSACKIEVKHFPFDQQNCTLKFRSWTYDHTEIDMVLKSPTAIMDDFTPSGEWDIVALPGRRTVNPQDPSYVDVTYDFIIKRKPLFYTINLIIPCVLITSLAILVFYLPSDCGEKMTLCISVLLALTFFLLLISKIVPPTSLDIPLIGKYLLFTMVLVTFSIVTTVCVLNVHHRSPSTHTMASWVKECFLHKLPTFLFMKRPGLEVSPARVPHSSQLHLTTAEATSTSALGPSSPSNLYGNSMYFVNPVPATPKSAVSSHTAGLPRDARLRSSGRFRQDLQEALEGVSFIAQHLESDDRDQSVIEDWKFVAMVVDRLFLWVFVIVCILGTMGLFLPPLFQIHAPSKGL

No constants are given. Whether binding was seen depends on the method and setting. In cells and extracts the contact can be indirect. Some binding calls cover weakened binding; strength is not graded here.

Regarding Chrnb4 (from UniProt Q8R493 21-495), the binding entry is “binds”.

The values above are taken from paper PMC12617525.
